Experimental data: PubChem BioAssay AID720505 (Drosophila RNAi Screening Center, 2013)

- Purpose: 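Fly regulators or components of the CRAC channel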 (primary screen)
- Cells: Drosophila S2R+ cells
- Knock-down reagent: long dsRNA against Drosophila genes
- Challenge: thapsigargin (2 µM) in calcium-free buffer to empty internal stores, then 2 mM calcium added back
- Detection: 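Stores emptied by 2 µM thapsigargin without calcium, then 2 mM calcium re-added; fluo-4 fluorescence followed by FLIPR in 384-well plates, per-well averaged endpoint, raw; two screen passes, some wells retested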
- Direction: calcium signal and retest calcium signal: higher = more calcium entry after store depletion
- Hit rule: 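About 1500 genes called as lowering calcium entry, by varying amounts, judged against per-plate control wells with STIM1 as positive and Rho1 as negative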
- Calls: active = called as lowering calcium entry; inactive = not called
The deposit covers about 20,000 reagents; shown is a random part of those that have a named target and a result. Over the whole deposit, about 2,100 (10%) got an active call. 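Raw plate signals without normalisation; calls rest on control-based scores that were not deposited; replicate 2 separates called from uncalled poorly.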 A plus sign joins genes that one reagent is predicted to hit. Not given: the amount of reagent, the time to read-out.

no.	target	DRSC id	calcium signal, replicate 1	calcium signal, replicate 2	retest calcium signal, replicate 1	retest calcium signal, replicate 2	outcome
1	pck (GeneID 31101)	DRSC18565	75.1	81.1			inactive
2	robo2 (GeneID 44522)	DRSC00377	168	151			inactive
3	robo2 (GeneID 44522)	DRSC00378	199	172			inactive
4	robo2 (GeneID 44522)	DRSC00686	200	146			inactive
5	robo2 (GeneID 44522)	DRSC00691	136	167			inactive
6	Snmp2 (GeneID 38868)	DRSC10228	72.3	54.6			active
7	Snmp2 (GeneID 38868)	DRSC10843	72.2	54.7			inactive
8	CG15253 (GeneID 34916)	DRSC01871	95.7	140			inactive
9	Cont (GeneID 40553)	DRSC12149	57.5	104			active
10	Tsp42Ed (GeneID 35613)	DRSC05940	81.1	89.5			inactive
11	CG30036 (GeneID 246408)	DRSC21334	116	95.8			inactive
12	Apc (GeneID 44642)	DRSC14114	148	167			inactive
13	St2 (GeneID 41098)	DRSC15142	113	127			inactive
14	St2 (GeneID 41098)	DRSC22624	115	202			inactive
15	CG9577 (GeneID 33016)	DRSC20693	68.6	214	127	78.5	active
16	CG42789 (GeneID 10178793)	DRSC13793	63.5	95.2			inactive
17	JMJD7 (GeneID 39514)	DRSC09703	120	153			inactive
18	CG10029 (GeneID 40883)	DRSC12498	97.3	122			inactive
19	Fas3 (GeneID 35097)	DRSC01638	71	206			inactive
20	Fas3 (GeneID 35097)	DRSC03326	113	101			inactive
21	Fas3 (GeneID 35097)	DRSC22776	112	199			inactive
22	Ptip (GeneID 39552)	DRSC10660	78.9	108			inactive
23	Ptip (GeneID 39552)	DRSC11048	105	141			inactive
24	CG3788 (GeneID 37644)	DRSC04418	145	197			inactive
25	CG32695 (GeneID 31918)	DRSC17975	110	89.4			inactive
26	CG4477 (GeneID 39058)	DRSC10425	81.5	86.8			inactive
27	SLIRP2 (GeneID 41021)	DRSC16363	136	186			inactive
28	pn (GeneID 31194)	DRSC18822	130	139			inactive
29	mrt (GeneID 43291)	DRSC15484	153	134			inactive
30	Cpr51A (GeneID 36613)	DRSC05969	114	142			inactive
31	CG12310 (GeneID 39634)	DRSC09878	95.4	228			inactive
32	pncr003:2L (retired record) (GeneID 3772689)	DRSC22149	102	170			inactive
33	uex (GeneID 5740320)	DRSC20784	99.8	8536			inactive
34	uex (GeneID 5740320)	DRSC20786	95.3	12864			inactive
35	CG6230 (GeneID 34546)	DRSC01989	76.8	84			inactive
36	CG33143 (GeneID 37583)	DRSC04151	79.4	142			inactive
37	CG33143 (GeneID 37583)	DRSC04454	95.3	132			inactive
38	antr (GeneID 246647)	DRSC22392	84.8	85.6			inactive
39	Duox (GeneID 33477)	DRSC00571	138	141			inactive
40	Top1 (GeneID 32458)	DRSC20295	50.1	93.7			active
41	Traf4 (GeneID 33638)	DRSC00445	69.8	101			active
42	Traf4 (GeneID 33638)	DRSC00794	128	246			inactive
43	lilli (GeneID 33496)	DRSC00708	100	173	67.9	91	inactive
44	rdx (GeneID 41704)	DRSC14526	85	178			inactive
45	rdx (GeneID 41704)	DRSC16580	80.9	157			inactive
46	rdx (GeneID 41704)	DRSC23120	119	166			inactive
47	cold (GeneID 33237)	DRSC00538	114	197			inactive
48	AP-1gamma (GeneID 31842)	DRSC18433	67.8	95.7			inactive
49	l(1)G0196 (GeneID 33137)	DRSC20591	115	13249			inactive
50	l(1)G0196 (GeneID 33137)	DRSC20629	144	115			inactive
51	Tcs6 + PIG-P	DRSC14893	279	161			inactive
52	NtR (GeneID 43935)	DRSC04628	188	81			inactive
53	Josd (GeneID 31560)	DRSC18323	291	77.4			inactive
54	frac (GeneID 38850)	DRSC10867	103	118			inactive
55	CG13404 (GeneID 32382)	DRSC19536	117	113			inactive
56	Ced-12 (GeneID 34633)	DRSC02840	111	143			inactive
57	CG8630 (GeneID 41629)	DRSC16441	119	169			inactive
58	CG8539 (GeneID 38842)	DRSC10988	95.1	141			inactive
59	CG8539 (GeneID 38842)	DRSC21798	160	102			inactive
60	CG11656 (GeneID 41600)	DRSC14338	106	102			inactive
61	CG7101 (GeneID 32875)	DRSC20023	169	140			inactive
62	CG7101 (GeneID 32875)	DRSC22845	89.9	119			inactive
63	eIF3f1 (GeneID 40587)	DRSC12328	84.5	118			inactive
64	rho (GeneID 38168)	DRSC08734	80.7	98.9			inactive
65	Strica (GeneID 35528)	DRSC04920	134	161			inactive
66	GLaz (GeneID 36447)	DRSC07431	83	144			inactive
67	Dic4 (GeneID 40039)	DRSC10317	72.7	131			inactive
68	CG7634 (GeneID 40394)	DRSC11843	100	131			inactive
69	ND-B22 (GeneID 34747)	DRSC03193	111	95.7			inactive
70	Tom7 (GeneID 35899)	DRSC05135	63.8	83			active
71	Tom7 (GeneID 35899)	DRSC07113	112	130			inactive
72	Mocs2A + Mocs2B	DRSC13697	74.5	113			inactive
73	Mocs2A + Mocs2B	DRSC14219	253	175			inactive
74	CG33966 (GeneID 3885642)	DRSC08256	78.8	101			inactive
75	wdb (GeneID 43312)	DRSC14163	87	97.7			inactive
76	CG11035 (GeneID 40953)	DRSC14287	109	163			inactive
77	Tret1-2 (GeneID 36249)	DRSC07117	113	211			inactive
78	CR33283 (GeneID 10178863)	DRSC22918	139	199			inactive
79	CG7196 (retired record) (GeneID 34057)	DRSC01000	119	107			inactive
80	CG7196 (retired record) (GeneID 34057)	DRSC03023	74.3	67.9			active
81	CG17122 (GeneID 40226)	DRSC10245	93.8	162			inactive
82	Srg3 (GeneID 39092)	DRSC10178	91.4	94			inactive
83	Gcn5 (GeneID 39431)	DRSC11248	83.5	85.3			inactive

Reagents listed so far marked active, once more:
target	DRSC id	calcium signal, replicate 1	calcium signal, replicate 2	retest calcium signal, replicate 1	retest calcium signal, replicate 2	outcome
Snmp2 (GeneID 38868)	DRSC10228	72.3	54.6			active
Cont (GeneID 40553)	DRSC12149	57.5	104			active
CG9577 (GeneID 33016)	DRSC20693	68.6	214	127	78.5	active
Top1 (GeneID 32458)	DRSC20295	50.1	93.7			active
Traf4 (GeneID 33638)	DRSC00445	69.8	101			active
Tom7 (GeneID 35899)	DRSC05135	63.8	83			active
CG7196 (retired record) (GeneID 34057)	DRSC03023	74.3	67.9			active
